Our source for the Total and Unique values is US12729225B2, “Non-canonical SWI/SNF complex and uses thereof” (Dana-Farber Cancer Institute, Inc., priority 2018, dated 2026).

The labels stand for the following.
B1: UQCRC1 (protein, UniProt P31930 35-480, looked up)
Cytochrome b-c1 complex …: TATFAQALQFVPETQVSLLDNGLRVASEQSSQPTCTVGVWIDVGSRFETEKNNGAGYFLEHLAFKGTKNRPGSALEKEVESMGAHLNAYSTREHTAYYIKALSKDLPKAVELLGDIVQNCSLEDSQIEKERDVILREMQENDASMRDVVFNYLHATAFQGTPLAQAVEGPSENVRKLSRADLTEYLSTHYKAPRMVLAAAGGVEHQQLLDLAQKHLGGIPWTYAEDAVPTLTPCRFTGSEIRHRDDALPFAHVAIAVEGPGWASPDNVALQVANAIIGHYDCTYGGGVHLSSPLASGAVANKLCQSFQTFSICYAETGLLGAHFVCDRMKIDDMMFVLQGQWMRLCTSATESEVARGKNILRNALVSHLDGTTPVCEDIGRSLLTYGRRIPLAEWESRIAEVDASVVREICSKYIYDQCPAVAGYGPIEQLPDYNRIRSGMFWLRF
B2: CPS1 (protein, UniProt P31327 39-1500, looked up)
Carbamoyl-phosphate synthase …: LSVKAQTAHIVLEDGTKMKGYSFGHPSSVAGEVVFNTGLGGYPEAITDPAYKGQILTMANPIIGNGGAPDTTALDELGLSKYLESNGIKVSGLLVLDYSKDYNHWLATKSLGQWLQEEKVPAIYGVDTRMLTKIIRDKGTMLGKIEFEGQPVDFVDPNKQNLIAEVSTKDVKVYGKGNPTKVVAVDCGIKNNVIRLLVKRGAEVHLVPWNHDFTKMEYDGILIAGGPGNPALAEPLIQNVRKILESDRKEPLFGISTGNLITGLAAGAKTYKMSMANRGQNQPVLNITNKQAFITAQNHGYALDNTLPAGWKPLFVNVNDQTNEGIMHESKPFFAVQFHPEVTPGPIDTEYLFDSFFSLIKKGKATTITSVLPKPALVASRVEVSKVLILGSGGLSIGQAGEFDYSGSQAVKAMKEENVKTVLMNPNIASVQTNEVGLKQADTVYFLPITPQFVTEVIKAEQPDGLILGMGGQTALNCGVELFKRGVLKEYGVKVLGTSVESIMATEDRQLFSDKLNEINEKIAPSFAVESIEDALKAADTIGYPVMIRSAYALGGLGSGICPNRETLMDLSTKAFAMTNQILVEKSVTGWKEIEYEVVRDADDNCVTVCNMENVDAMGVHTGDSVVVAPAQTLSNAEFQMLRRTSINVVRHLGIVGECNIQFALHPTSMEYCIIEVNARLSRSSALASKATGYPLAFIAAKIALGIPLPEIKNVVSGKTSACFEPSLDYMVTKIPRWDLDRFHGTSSRIGSSMKSVGEVMAIGRTFEESFQKALRMCHPSIEGFTPRLPMNKEWPSNLDLRKELSEPSSTRIYAIAKAIDDNMSLDEIEKLTYIDKWFLYKMRDILNMEKTLKGLNSESMTEETLKRAKEIGFSDKQISKCLGLTEAQTRELRLKKNIHPWVKQIDTLAAEYPSVTNYLYVTYNGQEHDVNFDDHGMMVLGCGPYHIGSSVEFDWCAVSSIRTLRQLGKKTVVVNCNPETVSTDFDECDKLYFEELSLERILDIYHQEACGGCIISVGGQIPNNLAVPLYKNGVKIMGTSPLQIDRAEDRSIFSAVLDELKVAQAPWKAVNTLNEALEFAKSVDYPCLLRPSYVLSGSAMNVVFSEDEMKKFLEEATRVSQEHPVVLTKFVEGAREVEMDAVGKDGRVISHAISEHVEDAGVHSGDATLMLPTQTISQGAIEKVKDATRKIAKAFAISGPFNVQFLVKGNDVLVIECNLRASRSFPFVSKTLGVDFIDVATKVMIGENVDEKHLPTLDHPIIPADYVAIKAPMFSWPRLRDADPILRCEMASTGEVACFGEGIHTAFLKAMLSTGFKIPQKGILIGIQQSFRPRFLGVAEQLHNEGFKLFATEATSDWLNANNVPATPVAWPSQEGQNPSLSSIRKLIRDGSIDLVINLPNNNTKFVHDNYVIRRTAVDSGIPLLTNFQVTKLFAEAVQKSRKVDSKSLFHYRQYSAGKAA
B3: ASPH (protein, UniProt Q12797 1-758, looked up)
Aspartyl/asparaginyl …: MAQRKNAKSSGNSSSSGSGSGSTSAGSSSPGARRETKHGGHKNGRKGGLSGTSFFTWFMVIALLGVWTSVAVVWFDLVDYEEVLGKLGIYDADGDGDFDVDDAKVLLGLKERSTSEPAVPPEEAEPHTEPEEQVPVEAEPQNIEDEAKEQIQSLLHEMVHAEHVEGEDLQQEDGPTGEPQQEDDEFLMATDVDDRFETLEPEVSHEETEHSYHVEETVSQDCNQDMEEMMSEQENPDSSEPVVEDERLHHDTDDVTYQVYEEQAVYEPLENEGIEITEVTAPPEDNPVEDSQVIVEEVSIFPVEEQQEVPPETNRKTDDPEQKAKVKKKKPKLLNKFDKTIKAELDAAEKLRKRGKIEEAVNAFKELVRKYPQSPRARYGKAQCEDDLAEKRRSNEVLRGAIETYQEVASLPDVPADLLKLSLKRRSDRQQFLGHMRGSLLTLQRLVQLFPNDTSLKNDLGVGYLLIGDNDNAKKVYEEVLSVTPNDGFAKVHYGFILKAQNKIAESIPYLKEGIESGDPGTDDGRFYFHLGDAMQRVGNKEAYKWYELGHKRGHFASVWQRSLYNVNGLKAQPWWTPKETGYTELVKSLERNWKLIRDEGLAVMDKAKGLFLPEDENLREKGDWSQFTLWQQGRRNENACKGAPKTCTLLEKFPETTGCRRGQIKYSIMHPGTHVWPHTGPTNCRLRMHLGLVIPKEGCKIRCANETKTWEEGKVLIFDDSFEHEVWQDASSFRLIFIVDVWHPELTPQQRRSLPAI
B4: ANP32E (protein, UniProt Q9BTT0 1-268, looked up)
Acidic leucine-rich nuclear …: MEMKKKINLELRNRSPEEVTELVLDNCLCVNGEIEGLNDTFKELEFLSMANVELSSLARLPSLNKLRKLELSDNIISGGLEVLAEKCPNLTYLNLSGNKIKDLSTVEALQNLKNLKSLDLFNCEITNLEDYRESIFELLQQITYLDGFDQEDNEAPDSEEEDDEDGDEDDEEEEENEAGPPEGYEEEEEEEEEEDEDEDEDEDEAGSELGEGEEEVGLSYLMKEEIQDEEDDDDYVEEGEEEEEEEEGGLRGEKRKRDAEDDGEEEDD
B5: TMED9 (protein, UniProt Q9BVK6 38-235, looked up)
Transmembrane emp24 …: LYFHIGETEKKCFIEEIPDETMVIGNYRTQLYDKQREEYQPATPGLGMFVEVKDPEDKVILARQYGSEGRFTFTSHTPGEHQICLHSNSTKFSLFAGGMLRVHLDIQVGEHANDYAEIAAKDKLSELQLRVRQLVEQVEQIQKEQNYQRWREERFRQTSESTNQRVLWWSILQTLILVAIGVWQMRHLKSFFEAKKLV
B6: SH2D3C (protein, UniProt Q8N5H7 1-860, looked up)
SH2 domain-containing protein …: MTEGTKKTSKKFKFFKFKGFGSLSNLPRSFTLRRSSASISRQSHLEPDTFEATQDDMVTVPKSPPAYARSSDMYSHMGTMPRPSIKKAQNSQAARQAQEAGPKPNLVPGGVPDPPGLEAAKEVMVKATGPLEDTPAMEPNPSAVEVDPIRKPEVPTGDVEEERPPRDVHSERAAGEPEAGSDYVKFSKEKYILDSSPEKLHKELEEELKLSSTDLRSHAWYHGRIPREVSETLVQRNGDFLIRDSLTSLGDYVLTCRWRNQALHFKINKVVVKAGESYTHIQYLFEQESFDHVPALVRYHVGSRKAVSEQSGAIIYCPVNRTFPLRYLEASYGLGQGSSKPASPVSPSGPKGSHMKRRSVTMTDGLTADKVTRSDGCPTSTSLPRPRDSIRSCALSMDQIPDLHSPMSPISESPSSPAYSTVTRVHAAPAAPSATALPASPVARRSSEPQLCPGSAPKTHGESDKGPHTSPSHTLGKASPSPSLSSYSDPDSGHYCQLQPPVRGSREWAATETSSQQARSYGERLKELSENGAPEGDWGKTFTVPIVEVTSSFNPATFQSLLIPRDNRPLEVGLLRKVKELLAEVDARTLARHVTKVDCLVARILGVTKEMQTLMGVRWGMELLTLPHGRQLRLDLLERFHTMSIMLAVDILGCTGSAEERAALLHKTIQLAAELRGTMGNMFSFAAVMGALDMAQISRLEQTWVTLRQRHTEGAILYEKKLKPFLKSLNEGKEGPPLSNTTFPHVLPLITLLECDSAPPEGPEPWGSTEHGVEVVLAHLEAARTVAHHGGLYHTNAEVKLQGFQARPELLEVFSTEFQMRLLWGSQGASSSQARRYEKFDKVLTALSHKLEPAVRSSEL
B7: PDHA2 (protein, UniProt P29803 28-388, looked up)
Pyruvate dehydrogenase E1 …: SSNDATFEIKKCDLYLLEEGPPVTTVLTRAEGLKYYRMMLTVRRMELKADQLYKQKFIRGFCHLCDGQEACCVGLEAGINPSDHVITSYRAHGVCYTRGLSVRSILAELTGRRGGCAKGKGGSMHMYTKNFYGGNGIVGAQGPLGAGIALACKYKGNDEICLTLYGDGAANQGQIAEAFNMAALWKLPCVFICENNLYGMGTSTERAAASPDYYKRGNFIPGLKVDGMDVLCVREATKFAANYCRSGKGPILMELQTYRYHGHSMSDPGVSYRTREEIQEVRSKRDPIIILQDRMVNSKLATVEELKEIGAEVRKEIDDAAQFATTDPEPHLEELGHHIYSSDSSFEVRGANPWIKFKSVS
B8: PRDX2 (protein, UniProt P32119 2-198, looked up)
Peroxiredoxin-2: ASGNARIGKPAPDFKATAVVDGAFKEVKLSDYKGKYVVLFFYPLDFTFVCPTEIIAFSNRAEDFRKLGCEVLGVSVDSQFTHLAWINTPRKEGGLGPLNIPLLADVTRRLSEDYGVLKTDEGIAYRGLFIIDGKGVLRQITVNDLPVGRSVDEALRLVQAFQYTDEHGEVCPAGWKPGSDTIKPNVDDSKEYFSKHN
B9: NME4 (protein, UniProt O00746 29-187, looked up)
Nucleoside diphosphate …: GSGGPSWTRERTLVAVKPDGVQRRLVGDVIQRFERRGFTLVGMKMLQAPESVLAEHYQDLRRKPFYPALIRYMSSGPVVAMVWEGYNVVRASRAMIGHTDSAEAAPGTIRGDFSVHISRNVIHASDSVEGAQREIQLWFQSSELVSWADGGQHSSIHPA
B10: DNAAF2 (protein, UniProt Q9NVR5 1-837, looked up)
Protein kintoun: MAKAAASSSLEDLDLSGEEVQRLTSAFQDPEFRRMFSQYAEELTDPENRRRYEAEITALERERGVEVRFVHPEPGHVLRTSLDGARRCFVNVCSNALVGAPSSRPGSGGDRGAAPGSHWSLPYSLAPGREYAGRSSSRYMVYDVVFHPDALALARRHEGFRQMLDATALEAVEKQFGVKLDRRNAKTLKAKYKGTPEAAVLRTPLPGVIPARPDGEPKGPLPDFPYPYQYPAAPGPRAPSPPEAALQPAPTEPRYSVVQRHHVDLQDYRCSRDSAPSPVPHELVITIELPLLRSAEQAALEVTRKLLCLDSRKPDYRLRLSLPYPVDDGRGKAQFNKARRQLVVTLPVVLPAARREPAVAVAAAAPEESADRSGTDGQACASAREGEAGPARSRAEDGGHDTCVAGAAGSGVTTLGDPEVAPPPAAAGEERVPKPGEQDLSRHAGSPPGSVEEPSPGGENSPGGGGSPCLSSRSLAWGSSAGRESARGDSSVETREESEGTGGQRSACAMGGPGTKSGEPLCPPLLCNQDKETLTLLIQVPRIQPQSLQGDLNPLWYKLRFSAQDLVYSFFLQFAPENKLSTTEPVISISSNNAVIELAKSPESHGHWREWYYGVNNDSLEERLFVNEENVNEFLEEVLSSPFKQSMSLTPPLIEVLQVTDNKIQINAKLQECSNSDQLQGKEERVNEESHLTEKEYIEHCNTPTTDSDSSIAVKALQIDSFGLVTCFQQESLDVSQMILGKSQQPESKMQSEFIKEKSATCSNEEKDNLNESVITEEKETDGDHLSSLLNKTTVHNIPGFDSIKETNMQDGSVQVIKDHVTNCAFSFQNSLLYDLD

The test system of one data set is mSWI/SNF complexes. In words: mSWI/SNF complex purification with HA-tagged baits and mass spectrometry (peptide counts). Conditions: 293_HA-BRD7 bait purification, mass spectrometry; total peptide count per identified protein. Set-up: species or system human.
B1 came in with a Total of 1.

With B2, the Total was determined as 1.

With B3, the Total turned out to be 1.

Consider B4, for which the Total was found to be 1.

Regarding B5, the Total is recorded as 1.

The molecule B6 returned a Total of 1.

In turn, B7 returned a Total of 1.

As for B8, the Total was determined as 1.

B9 came in with a Total of 1.

B10 displayed a Total of 1.

The data set is the same for the next values; noted with them: 293_HA-BRD7 bait purification, mass spectrometry; unique peptide count per identified protein.
In the case of B1, the Unique is recorded as 1.

As to B2, the Unique is 1.

In turn, B3 returned a Unique of 1.

B4 returned a Unique of 1.

Molecule B5 showed a Unique of 1.

On to B6, for which the Unique is given as 1.

The molecule B7 registered a Unique of 1.

In the case of B8, the Unique worked out at 1.

As to B9, the Unique is reported as 1.

In the case of B10, the Unique was 1.
